Results are given in words; binding and its absence hold for the method and conditions named. In cells and extracts the contact can be indirect. Some entries that bind do so weakly or less than the wild type.
Biological target: T1, BCL10 (human (endogenous in Jurkat)) (UniProt O95999)
T1 sequence: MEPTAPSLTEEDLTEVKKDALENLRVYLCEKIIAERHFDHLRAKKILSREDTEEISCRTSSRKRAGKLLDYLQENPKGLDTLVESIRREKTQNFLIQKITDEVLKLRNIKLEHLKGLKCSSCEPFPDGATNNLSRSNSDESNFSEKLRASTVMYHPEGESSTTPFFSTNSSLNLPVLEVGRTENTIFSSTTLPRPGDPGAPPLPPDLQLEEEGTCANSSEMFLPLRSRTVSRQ
Test: co-IP; BCL10 immunoprecipitated (anti-BCL10, protein G-sepharose, overnight, 4°C) from lysates of Jurkat cells transfected with nonspecific or PALS1 siRNA and stimulated with 1 µg/ml anti-CD3 and anti-CD28 for 0, 10, 20 min; lysis in 50 mM Tris pH 7.4, 150 mM NaCl, 1% Triton X-100, 1% Igepal, 2 mM EDTA; immunoblot for CARMA1 and MALT1

The chains behind the UniProt entries cited, without tags or fusion partners.
UniProt Q9UDY8: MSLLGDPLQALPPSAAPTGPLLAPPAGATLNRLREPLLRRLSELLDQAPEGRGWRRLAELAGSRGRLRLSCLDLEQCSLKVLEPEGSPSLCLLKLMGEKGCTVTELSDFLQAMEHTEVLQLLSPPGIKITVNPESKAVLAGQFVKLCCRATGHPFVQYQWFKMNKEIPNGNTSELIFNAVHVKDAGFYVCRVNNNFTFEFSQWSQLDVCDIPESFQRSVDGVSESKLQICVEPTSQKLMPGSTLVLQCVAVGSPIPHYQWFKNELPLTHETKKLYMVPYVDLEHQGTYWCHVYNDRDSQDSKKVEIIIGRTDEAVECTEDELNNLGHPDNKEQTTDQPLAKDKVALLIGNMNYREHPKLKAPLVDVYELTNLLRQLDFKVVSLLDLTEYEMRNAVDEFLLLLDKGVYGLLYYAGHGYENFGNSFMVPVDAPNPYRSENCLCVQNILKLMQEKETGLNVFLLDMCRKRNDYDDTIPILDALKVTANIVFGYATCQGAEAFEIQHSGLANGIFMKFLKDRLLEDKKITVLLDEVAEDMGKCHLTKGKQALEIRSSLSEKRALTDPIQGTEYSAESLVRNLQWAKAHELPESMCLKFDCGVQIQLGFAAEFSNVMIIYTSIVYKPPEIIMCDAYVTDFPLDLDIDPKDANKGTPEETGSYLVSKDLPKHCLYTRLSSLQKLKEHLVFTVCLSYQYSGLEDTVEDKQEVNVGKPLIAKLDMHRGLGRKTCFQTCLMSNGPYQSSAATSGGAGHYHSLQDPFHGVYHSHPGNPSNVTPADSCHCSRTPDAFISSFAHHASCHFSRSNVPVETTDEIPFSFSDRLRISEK

MALT1 (from UniProt Q9UDY8 1-824)
binding: binds

— article PMC3068181
